# PubChem BioAssay AID493246 | Drosophila RNAi Screening Center | 2011
# Aim: 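Identify essential fly genes by loss of cell viability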 (primary screen)
# Cells: Drosophila Kc and S2R+ cells
# Reagent: long dsRNA against Drosophila genes
# Measurement: 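Cell number per well after knock-down, printed as raw plate values; calls were based on per-plate z-scores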
# Scale: Kc cell number and S2R+ cell number: higher = more cells remaining
# Active means: 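Counted as a hit if cell number falls by a z-score of at least 3 within its plate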
# The deposit covers about 21,000 reagents; below is an unselected part of those with a known target gene and a result. Of all reagents, 429 (2%) got an active call. 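Values are raw and not normalised between plates; calls rest on per-plate z-scores that were not deposited.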 The record does not give: the amount of reagent, the time to read-out.
Gene,amplicon,"Kc cell number, rep 1","Kc cell number, rep 2","S2R+ cell number, rep 1","S2R+ cell number, rep 2",Call
Mst57Dc,DRSC16745,1.62e6,1.74e6,1.01e6,1.09e6,inactive
CG34238,DRSC09040,1.40e6,1.43e6,1.12e6,1.21e6,inactive
cu,DRSC15643,1.69e6,1.57e6,1.36e6,1.51e6,inactive
cu,DRSC15648,1.75e6,1.80e6,1.42e6,1.49e6,inactive
w-cup,DRSC03048,1.79e6,1.78e6,1.28e6,1.41e6,inactive
pirk,DRSC04269,1.51e6,1.58e6,1.25e6,3.39e5,inactive
RIOK2,DRSC14413,1.41e6,1.45e6,1.03e6,1.14e6,inactive
RhoGDI,DRSC10919,1.53e6,1.62e6,1.21e6,1.25e6,inactive
Rbp4,DRSC16818,1.29e6,1.48e6,1.10e6,1.25e6,inactive
SsRbeta,DRSC11290,1.63e6,1.63e6,1.33e6,1.38e6,inactive
CG7264,DRSC10793,1.44e6,1.47e6,1.07e6,1.20e6,inactive
CG8788,DRSC07267,1.47e6,1.59e6,1.24e6,1.31e6,inactive
CG14005,DRSC02337,1.35e6,1.37e6,5.75e5,6.35e5,inactive
CG32195,DRSC09533,1.36e6,1.45e6,1.14e6,1.32e6,inactive
CCKLR-17D1,DRSC20010,1.59e6,1.61e6,9.69e5,1.18e6,inactive
CCKLR-17D1,DRSC20011,1.61e6,1.64e6,1.01e6,1.14e6,inactive
CCKLR-17D1,DRSC20012,1.64e6,1.67e6,1.06e6,1.19e6,inactive
pie,DRSC03590,1.36e6,1.39e6,1.17e6,1.24e6,inactive
CG42329,DRSC00373,1.50e6,1.54e6,1.05e6,1.19e6,inactive
CG42329,DRSC00682,1.46e6,1.45e6,1.07e6,1.20e6,inactive
Rpn12R,DRSC09842,1.68e6,1.84e6,1.30e6,1.46e6,inactive
CG32733 (retired record),DRSC17481,1.32e6,1.48e6,9.99e5,1.09e6,inactive
Ntan1,DRSC07546,1.68e6,1.65e6,1.26e6,1.43e6,inactive

A portion from the list above:
Gene,amplicon,"Kc cell number, rep 1","Kc cell number, rep 2","S2R+ cell number, rep 1","S2R+ cell number, rep 2",Call
CCKLR-17D1,DRSC20012,1.64e6,1.67e6,1.06e6,1.19e6,inactive
pie,DRSC03590,1.36e6,1.39e6,1.17e6,1.24e6,inactive
CG42329,DRSC00373,1.50e6,1.54e6,1.05e6,1.19e6,inactive
CG42329,DRSC00682,1.46e6,1.45e6,1.07e6,1.20e6,inactive

The results go on.
Gene,amplicon,"Kc cell number, rep 1","Kc cell number, rep 2","S2R+ cell number, rep 1","S2R+ cell number, rep 2",Call
Or83c,DRSC12359,1.50e6,1.55e6,1.31e6,1.36e6,inactive
fy,DRSC03533,1.62e6,1.66e6,1.31e6,1.44e6,inactive
CG32652 (retired record),DRSC18942,1.40e6,1.51e6,1.09e6,1.21e6,inactive
CG10984,DRSC09817,1.46e6,1.53e6,1.35e6,1.31e6,inactive
CG10139,DRSC05972,1.41e6,1.47e6,1.19e6,1.23e6,inactive
Pbgs,DRSC09718,1.26e6,1.37e6,1.25e6,1.37e6,inactive
CG1894,DRSC15396,1.43e6,1.45e6,9.84e5,1.07e6,inactive
CG7326,DRSC20037,1.62e6,1.64e6,1.10e6,1.20e6,inactive
CG11403,DRSC18532,5.36e5,,8.87e5,,inactive
RpL10Aa,DRSC15518,1.28e6,1.34e6,7.41e5,8.93e5,inactive
CG11249,DRSC11645,1.32e6,1.34e6,1.31e6,1.36e6,inactive
ACXD,DRSC07843,1.49e6,1.32e6,9.06e5,1.11e6,inactive
AP-1sigma,DRSC15899,1.54e6,1.58e6,1.13e6,1.26e6,inactive
CG13693,DRSC00362,1.86e6,1.88e6,1.14e6,1.22e6,inactive
Uba2,DRSC11311,1.70e6,1.62e6,1.30e6,1.31e6,inactive
Pex14,DRSC11754,1.47e6,1.63e6,1.37e6,1.43e6,inactive
CG12909,DRSC06224,1.46e6,1.52e6,1.02e6,1.13e6,inactive
tyn,DRSC20652,1.45e6,1.47e6,9.82e5,1.13e6,inactive
TwdlV,DRSC12226,1.37e6,1.53e6,1.21e6,1.23e6,inactive
robo2,DRSC00377,1.52e6,1.58e6,1.11e6,1.23e6,inactive
robo2,DRSC00378,1.55e6,1.57e6,1.07e6,1.26e6,inactive
robo2,DRSC00686,1.56e6,1.52e6,1.10e6,1.25e6,inactive
robo2,DRSC00691,1.26e6,1.33e6,1.08e6,1.06e6,inactive
mRpS11,DRSC15732,1.25e6,1.28e6,1.04e6,1.16e6,inactive
Mp,DRSC10193,1.41e6,1.43e6,1.26e6,1.13e6,inactive
Mp,DRSC11029,1.27e6,1.27e6,1.16e6,1.26e6,inactive
Mp,DRSC11030,1.45e6,1.44e6,1.10e6,1.15e6,inactive
CR14033,DRSC02358,1.31e6,1.38e6,5.60e5,7.79e5,inactive
sona,DRSC04089,1.50e6,1.58e6,1.32e6,1.42e6,inactive
sona,DRSC04574,1.48e6,1.55e6,1.15e6,1.24e6,inactive
sona,DRSC04575,1.46e6,1.52e6,1.28e6,1.39e6,inactive
Qsox3,DRSC16096,1.27e6,1.30e6,1.02e6,1.14e6,inactive
CG15083,DRSC06514,1.74e6,1.75e6,1.21e6,1.40e6,inactive
CG11858,DRSC14412,1.44e6,1.50e6,9.91e5,1.13e6,inactive
ppk,DRSC03595,1.62e6,1.64e6,1.26e6,1.45e6,inactive
CG4465,DRSC15584,1.19e6,1.15e6,1.12e6,1.21e6,inactive
